The other results are listed elsewhere or left out.

Protein sequences, listed by entry. Tags and fused reporters are not part of them. Lines headed by an entry give the natural chain unless they say otherwise; changes in a name come on top.
UniProt Q6NXT1: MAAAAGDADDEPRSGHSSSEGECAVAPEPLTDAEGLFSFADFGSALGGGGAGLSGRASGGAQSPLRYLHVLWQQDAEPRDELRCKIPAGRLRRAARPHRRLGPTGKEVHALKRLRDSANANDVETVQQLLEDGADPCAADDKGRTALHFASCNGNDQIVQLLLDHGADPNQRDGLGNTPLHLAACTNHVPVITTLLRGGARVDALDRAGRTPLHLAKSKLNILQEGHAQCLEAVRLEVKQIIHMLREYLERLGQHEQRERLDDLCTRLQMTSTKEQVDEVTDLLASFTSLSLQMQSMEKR
UniProt Q02252: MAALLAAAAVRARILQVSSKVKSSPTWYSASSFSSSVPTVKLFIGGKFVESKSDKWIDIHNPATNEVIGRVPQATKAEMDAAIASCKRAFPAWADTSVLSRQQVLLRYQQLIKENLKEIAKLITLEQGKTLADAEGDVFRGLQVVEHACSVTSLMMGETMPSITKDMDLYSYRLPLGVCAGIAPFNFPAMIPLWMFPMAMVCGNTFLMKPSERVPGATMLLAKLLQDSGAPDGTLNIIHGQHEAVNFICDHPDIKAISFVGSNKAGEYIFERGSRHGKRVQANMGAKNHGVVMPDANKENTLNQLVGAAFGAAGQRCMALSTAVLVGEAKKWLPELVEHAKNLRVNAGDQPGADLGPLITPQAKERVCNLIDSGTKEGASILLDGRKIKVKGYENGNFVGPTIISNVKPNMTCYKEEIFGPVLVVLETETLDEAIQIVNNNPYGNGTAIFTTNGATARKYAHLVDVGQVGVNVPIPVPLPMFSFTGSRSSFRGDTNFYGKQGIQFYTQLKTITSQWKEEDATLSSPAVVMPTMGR
UniProt P17707: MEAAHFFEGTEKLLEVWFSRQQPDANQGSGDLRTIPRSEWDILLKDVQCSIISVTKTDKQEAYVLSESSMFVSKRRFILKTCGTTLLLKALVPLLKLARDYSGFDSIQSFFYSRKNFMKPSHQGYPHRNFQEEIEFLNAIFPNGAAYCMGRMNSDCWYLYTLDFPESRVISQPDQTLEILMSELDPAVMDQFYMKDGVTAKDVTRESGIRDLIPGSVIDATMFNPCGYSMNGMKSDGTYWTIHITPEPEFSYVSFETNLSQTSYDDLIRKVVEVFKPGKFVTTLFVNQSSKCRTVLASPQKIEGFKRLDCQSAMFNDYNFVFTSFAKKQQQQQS
UniProt P15144: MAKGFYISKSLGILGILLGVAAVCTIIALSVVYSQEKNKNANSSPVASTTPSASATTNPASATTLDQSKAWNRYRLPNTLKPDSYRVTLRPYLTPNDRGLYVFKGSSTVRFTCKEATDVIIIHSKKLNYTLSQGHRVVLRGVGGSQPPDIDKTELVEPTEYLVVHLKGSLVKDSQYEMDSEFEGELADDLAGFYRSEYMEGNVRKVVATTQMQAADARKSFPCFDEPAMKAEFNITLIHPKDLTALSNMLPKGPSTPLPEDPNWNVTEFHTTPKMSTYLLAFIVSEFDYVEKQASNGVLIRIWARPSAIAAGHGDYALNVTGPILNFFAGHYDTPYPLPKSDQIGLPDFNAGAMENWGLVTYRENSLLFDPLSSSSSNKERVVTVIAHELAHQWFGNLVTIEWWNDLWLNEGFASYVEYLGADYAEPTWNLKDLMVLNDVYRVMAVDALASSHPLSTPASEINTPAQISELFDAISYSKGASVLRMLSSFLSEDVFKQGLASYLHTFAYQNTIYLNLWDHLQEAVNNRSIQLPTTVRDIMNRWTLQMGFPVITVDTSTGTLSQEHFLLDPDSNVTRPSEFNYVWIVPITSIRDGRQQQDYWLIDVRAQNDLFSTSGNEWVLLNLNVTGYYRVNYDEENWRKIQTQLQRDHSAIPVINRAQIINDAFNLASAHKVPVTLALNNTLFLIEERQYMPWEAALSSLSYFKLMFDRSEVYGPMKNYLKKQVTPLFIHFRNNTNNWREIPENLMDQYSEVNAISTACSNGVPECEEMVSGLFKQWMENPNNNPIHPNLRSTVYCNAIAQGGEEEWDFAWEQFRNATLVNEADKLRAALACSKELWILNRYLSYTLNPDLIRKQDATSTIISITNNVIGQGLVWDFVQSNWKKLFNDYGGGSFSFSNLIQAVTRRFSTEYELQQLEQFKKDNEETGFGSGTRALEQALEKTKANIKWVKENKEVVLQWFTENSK
UniProt P50995, whole entry, looked up: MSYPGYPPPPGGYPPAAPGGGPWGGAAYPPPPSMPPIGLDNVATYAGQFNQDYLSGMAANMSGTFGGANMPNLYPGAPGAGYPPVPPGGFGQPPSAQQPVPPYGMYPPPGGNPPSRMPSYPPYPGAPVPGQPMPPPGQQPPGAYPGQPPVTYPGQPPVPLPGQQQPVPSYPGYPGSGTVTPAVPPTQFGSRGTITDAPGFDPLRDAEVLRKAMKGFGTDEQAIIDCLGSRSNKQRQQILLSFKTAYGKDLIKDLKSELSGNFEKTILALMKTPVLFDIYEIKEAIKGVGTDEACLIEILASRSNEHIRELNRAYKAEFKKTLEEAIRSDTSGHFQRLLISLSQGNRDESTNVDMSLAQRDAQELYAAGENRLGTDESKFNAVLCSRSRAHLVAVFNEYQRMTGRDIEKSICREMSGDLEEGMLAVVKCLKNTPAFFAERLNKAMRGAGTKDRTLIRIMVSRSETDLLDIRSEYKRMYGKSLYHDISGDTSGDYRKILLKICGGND
UniProt P00352: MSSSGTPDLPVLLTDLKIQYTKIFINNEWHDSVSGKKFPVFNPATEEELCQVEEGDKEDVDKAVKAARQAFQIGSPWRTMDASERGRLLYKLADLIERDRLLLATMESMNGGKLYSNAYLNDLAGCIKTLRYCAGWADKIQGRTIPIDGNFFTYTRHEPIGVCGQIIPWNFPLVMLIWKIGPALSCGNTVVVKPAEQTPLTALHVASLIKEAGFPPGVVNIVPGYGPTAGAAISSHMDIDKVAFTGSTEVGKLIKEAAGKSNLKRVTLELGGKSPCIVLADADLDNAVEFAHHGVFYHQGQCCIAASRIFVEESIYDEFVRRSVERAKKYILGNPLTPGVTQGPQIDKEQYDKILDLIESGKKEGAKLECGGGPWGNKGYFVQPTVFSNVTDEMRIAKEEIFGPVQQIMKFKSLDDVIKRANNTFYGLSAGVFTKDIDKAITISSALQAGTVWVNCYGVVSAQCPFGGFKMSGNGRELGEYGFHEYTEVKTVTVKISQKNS
UniProt P30837: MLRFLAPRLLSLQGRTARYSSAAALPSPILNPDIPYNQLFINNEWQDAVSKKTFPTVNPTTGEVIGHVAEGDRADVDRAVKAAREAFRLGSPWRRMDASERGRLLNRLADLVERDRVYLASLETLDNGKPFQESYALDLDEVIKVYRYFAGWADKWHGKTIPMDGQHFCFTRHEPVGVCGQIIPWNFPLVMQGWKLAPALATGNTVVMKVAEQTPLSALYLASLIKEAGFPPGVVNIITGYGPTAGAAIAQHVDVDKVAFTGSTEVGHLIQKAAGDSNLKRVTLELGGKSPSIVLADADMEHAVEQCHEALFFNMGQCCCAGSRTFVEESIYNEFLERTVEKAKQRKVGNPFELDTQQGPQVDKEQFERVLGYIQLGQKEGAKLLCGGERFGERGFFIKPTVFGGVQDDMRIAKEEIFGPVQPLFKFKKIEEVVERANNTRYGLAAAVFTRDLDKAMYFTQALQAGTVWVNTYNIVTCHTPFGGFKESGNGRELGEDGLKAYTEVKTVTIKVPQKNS
UniProt P53680: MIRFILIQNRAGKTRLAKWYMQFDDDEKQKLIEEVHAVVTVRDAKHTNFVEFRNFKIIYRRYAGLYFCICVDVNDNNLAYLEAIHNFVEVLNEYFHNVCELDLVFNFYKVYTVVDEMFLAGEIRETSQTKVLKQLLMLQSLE
UniProt O14617: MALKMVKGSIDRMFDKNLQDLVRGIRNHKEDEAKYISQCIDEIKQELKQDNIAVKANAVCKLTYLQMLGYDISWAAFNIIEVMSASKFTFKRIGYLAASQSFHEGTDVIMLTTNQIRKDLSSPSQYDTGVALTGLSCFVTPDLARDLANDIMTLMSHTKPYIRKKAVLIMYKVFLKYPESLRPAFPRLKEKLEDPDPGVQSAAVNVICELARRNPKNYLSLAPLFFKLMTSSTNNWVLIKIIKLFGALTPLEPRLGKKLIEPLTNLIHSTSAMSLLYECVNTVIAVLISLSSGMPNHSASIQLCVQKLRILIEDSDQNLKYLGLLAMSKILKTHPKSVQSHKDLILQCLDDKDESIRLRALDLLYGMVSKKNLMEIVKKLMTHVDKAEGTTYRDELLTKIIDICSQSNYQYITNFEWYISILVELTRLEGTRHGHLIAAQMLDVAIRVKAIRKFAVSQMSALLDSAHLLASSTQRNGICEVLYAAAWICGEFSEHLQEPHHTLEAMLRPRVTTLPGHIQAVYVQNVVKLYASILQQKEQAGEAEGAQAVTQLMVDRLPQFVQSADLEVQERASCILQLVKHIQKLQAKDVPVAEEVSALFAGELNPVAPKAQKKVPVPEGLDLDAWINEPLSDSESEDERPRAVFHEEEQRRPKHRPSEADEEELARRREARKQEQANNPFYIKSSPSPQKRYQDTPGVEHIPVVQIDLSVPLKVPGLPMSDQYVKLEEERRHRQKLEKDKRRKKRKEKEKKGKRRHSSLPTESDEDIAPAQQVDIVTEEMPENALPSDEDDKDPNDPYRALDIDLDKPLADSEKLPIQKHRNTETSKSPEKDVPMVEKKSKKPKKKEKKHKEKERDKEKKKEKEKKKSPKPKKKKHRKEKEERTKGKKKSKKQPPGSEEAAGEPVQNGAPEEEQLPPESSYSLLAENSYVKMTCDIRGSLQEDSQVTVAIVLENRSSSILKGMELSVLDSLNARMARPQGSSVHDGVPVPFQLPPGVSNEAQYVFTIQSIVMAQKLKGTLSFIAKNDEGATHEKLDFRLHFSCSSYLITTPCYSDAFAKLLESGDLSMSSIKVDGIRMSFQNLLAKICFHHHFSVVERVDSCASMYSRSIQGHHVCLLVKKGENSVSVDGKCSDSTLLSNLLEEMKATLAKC
UniProt P05091: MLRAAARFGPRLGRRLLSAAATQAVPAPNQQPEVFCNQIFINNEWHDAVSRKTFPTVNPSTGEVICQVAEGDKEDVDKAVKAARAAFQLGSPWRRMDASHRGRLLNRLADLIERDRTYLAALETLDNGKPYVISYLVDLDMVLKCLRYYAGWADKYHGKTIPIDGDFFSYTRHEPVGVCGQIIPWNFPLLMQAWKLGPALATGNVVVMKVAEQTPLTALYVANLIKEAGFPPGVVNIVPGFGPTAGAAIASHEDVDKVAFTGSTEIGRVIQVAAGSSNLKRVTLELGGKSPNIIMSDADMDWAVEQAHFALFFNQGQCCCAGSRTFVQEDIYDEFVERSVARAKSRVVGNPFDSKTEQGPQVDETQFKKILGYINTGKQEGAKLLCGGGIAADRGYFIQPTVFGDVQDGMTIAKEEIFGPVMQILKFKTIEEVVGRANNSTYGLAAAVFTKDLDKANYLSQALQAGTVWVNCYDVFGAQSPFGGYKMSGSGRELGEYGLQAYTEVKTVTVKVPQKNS
UniProt O94788: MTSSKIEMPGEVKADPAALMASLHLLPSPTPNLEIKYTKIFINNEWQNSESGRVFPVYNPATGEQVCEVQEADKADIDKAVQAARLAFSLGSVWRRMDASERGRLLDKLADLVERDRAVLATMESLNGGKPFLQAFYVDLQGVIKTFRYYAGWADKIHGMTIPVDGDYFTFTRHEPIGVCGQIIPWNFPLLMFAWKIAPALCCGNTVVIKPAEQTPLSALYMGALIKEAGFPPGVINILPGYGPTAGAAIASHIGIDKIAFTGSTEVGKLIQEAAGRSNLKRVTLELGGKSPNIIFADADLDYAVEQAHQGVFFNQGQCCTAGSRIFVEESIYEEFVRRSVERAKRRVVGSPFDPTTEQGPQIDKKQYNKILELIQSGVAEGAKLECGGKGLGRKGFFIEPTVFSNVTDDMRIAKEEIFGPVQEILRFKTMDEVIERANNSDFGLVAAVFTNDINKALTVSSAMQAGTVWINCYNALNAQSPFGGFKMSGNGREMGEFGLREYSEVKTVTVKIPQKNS
UniProt P12429: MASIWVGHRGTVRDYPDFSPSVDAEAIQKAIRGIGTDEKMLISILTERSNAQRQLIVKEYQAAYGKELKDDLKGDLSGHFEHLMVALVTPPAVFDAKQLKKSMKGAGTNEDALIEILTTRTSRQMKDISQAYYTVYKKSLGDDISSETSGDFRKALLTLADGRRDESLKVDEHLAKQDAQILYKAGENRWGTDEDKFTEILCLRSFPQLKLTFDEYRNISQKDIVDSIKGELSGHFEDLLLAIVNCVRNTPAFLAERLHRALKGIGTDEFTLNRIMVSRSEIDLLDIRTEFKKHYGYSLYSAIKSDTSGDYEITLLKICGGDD

Compound in one experiment: CC1=C(C=C(C=C1)NC(=O)C2=CC(=CC=C2)N(C)C)NC(=O)C3=CC=C(C=C3)O
Kind of experiment: log2 fold change, soluble protein after heating vs DMSO (PISA); higher = thermal stabilisation; K562 lysate, 10 uM; active = over 0.2 and 3.5 SD of the protein, either way, in both replicates (recomputed). In short, it runs like this: (§1)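 Thermal stability, expressed as log-two fold change relative to solvent controls, is given from duplicates. Crude K562 extract in PBS pH 7.4 with 1 mM MgCl2, at 1 mg/mL protein, was treated with 10 μM compound for 30 min and heated in aliquots for 3 min across 48°C-58°C. After pooling, adjustment to 0.5% NP-40 at 4°C and centrifugation at 21,000xg for 90 min, supernatant protein was measured by TMTpro 16plex LC-MS/MS with channel sums equalised.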
ANKRD54 (UniProt Q6NXT1): the log2 fold change was inactive: 0.01.

For the target ALDH6A1 (UniProt Q02252), the log2 fold change was inactive: -0.066.

On to ALKBH3 (UniProt Q96Q83), for which the log2 fold change is inactive: 0.014.

On to AMD1 (UniProt P17707), for which the log2 fold change was inactive: -0.023.

Consider ANPEP (UniProt P15144), for which the log2 fold change is inactive: -0.01.

In the case of ANXA11 (UniProt P50995), the log2 fold change was inactive: 0.01.

For ALDH1A1 (UniProt P00352), the log2 fold change was inactive: 0.028.

As for ALDH1B1 (UniProt P30837), the log2 fold change was inactive: -0.014.

ANK1 isoform 14 (UniProt P16157): the log2 fold change was inactive: 0.055.

For the target AP3S1 (UniProt Q92572), the log2 fold change is inactive: -0.052.

Regarding ANKRD28 (UniProt O15084), the log2 fold change is inactive: 0.003.

Turning to ALS2 (UniProt Q96Q42), the log2 fold change is inactive: 0.114.

Turning to ANTXR2 isoform 4 (UniProt P58335), the log2 fold change is inactive: 0.013.

For the target ANAPC4 isoform 3 (UniProt Q9UJX5), the log2 fold change was inactive: -0.001.

For ALMS1 (UniProt Q8TCU4), the log2 fold change is inactive: 0.011.

As to AKT1S1 isoform 3 (UniProt Q96B36), the log2 fold change is inactive: -0.023.

As to ALDH18A1 (UniProt P54886), the log2 fold change is inactive: 0.016.

As for AP2S1 (UniProt P53680), the log2 fold change was inactive: -0.046.

Take AP3D1 isoform 5 (UniProt O14617): the log2 fold change is inactive: 0.01.

Consider AP1B1 (UniProt Q10567), for which the log2 fold change is inactive: -0.002.

Turning to ALG2 (UniProt Q9H553), the log2 fold change is inactive: 0.07.

On to ALDH2 (UniProt P05091), for which the log2 fold change is inactive: 0.

As for ANP32B (UniProt Q92688), the log2 fold change is inactive: -0.022.

As for AP1G2 (UniProt O75843), the log2 fold change was inactive: 0.023.

For the target ANGEL2 (UniProt Q5VTE6), the log2 fold change is inactive: 0.028.

For ANKRD13A (UniProt Q8IZ07), the log2 fold change is inactive: 0.007.

With ALDH1L2 (UniProt Q3SY69), the log2 fold change is inactive: -0.006.

Take ALAD (UniProt P13716): the log2 fold change was inactive: 0.

For the target AP3B2 isoform 4 (UniProt Q13367), the log2 fold change is inactive: 0.022.

For the target ANAPC2 (UniProt Q9UJX6), the log2 fold change was inactive: -0.01.

For the target ALDH1A2 (UniProt O94788), the log2 fold change was inactive: -0.016.

Regarding ANXA3 (UniProt P12429), the log2 fold change is inactive: 0.005.

Consider ANKRD27 (UniProt Q96NW4), for which the log2 fold change was inactive: 0.013.

For ANAPC10 (UniProt Q9UM13), the log2 fold change is inactive: 0.001.

For ALG1 (UniProt Q9BT22), the log2 fold change was inactive: -0.062.

Compound in another experiment: CC1=CC=C(C=C1)SC2=C3C=C(SC3=CN=C2)C(=O)N
The description is as above. In short, it runs like this:
as §1
For ANKRD54 (UniProt Q6NXT1), the log2 fold change is inactive: -0.023.

Take ALDH6A1 (UniProt Q02252): the log2 fold change is inactive: -0.02.

In the case of ALKBH3 (UniProt Q96Q83), the log2 fold change is inactive: 0.023.

Take AMD1 (UniProt P17707): the log2 fold change is inactive: -0.119.

As to ANPEP (UniProt P15144), the log2 fold change was inactive: -0.007.

In the case of ANXA11 (UniProt P50995), the log2 fold change is inactive: 0.

Take ALDH1A1 (UniProt P00352): the log2 fold change is inactive: 0.011.

Turning to ALDH1B1 (UniProt P30837), the log2 fold change was inactive: -0.018.

With ANK1 isoform 14 (UniProt P16157), the log2 fold change is inactive: 0.011.

As for AP3S1 (UniProt Q92572), the log2 fold change is inactive: -0.017.

Consider ANKRD28 (UniProt O15084), for which the log2 fold change was inactive: 0.019.

Turning to ALS2 (UniProt Q96Q42), the log2 fold change was inactive: -0.008.

Take ANTXR2 isoform 4 (UniProt P58335): the log2 fold change is inactive: -0.024.

As for ANAPC4 isoform 3 (UniProt Q9UJX5), the log2 fold change was inactive: -0.023.

Turning to ALMS1 (UniProt Q8TCU4), the log2 fold change is inactive: 0.076.

With AKT1S1 isoform 3 (UniProt Q96B36), the log2 fold change was inactive: -0.008.

For the target ALDH18A1 (UniProt P54886), the log2 fold change was inactive: -0.018.

On to AP2S1 (UniProt P53680), for which the log2 fold change is inactive: 0.004.

Turning to AP3D1 isoform 5 (UniProt O14617), the log2 fold change was inactive: 0.006.

With AP1B1 (UniProt Q10567), the log2 fold change is inactive: 0.017.

Turning to ALG2 (UniProt Q9H553), the log2 fold change was inactive: -0.021.

Take ALDH2 (UniProt P05091): the log2 fold change is inactive: 0.01.

For the target ANP32B (UniProt Q92688), the log2 fold change was inactive: -0.023.

As for AP1G2 (UniProt O75843), the log2 fold change was inactive: -0.027.

For the target ANGEL2 (UniProt Q5VTE6), the log2 fold change is inactive: -0.053.

ANKRD13A (UniProt Q8IZ07): the log2 fold change is inactive: 0.

Regarding ALDH1L2 (UniProt Q3SY69), the log2 fold change was inactive: 0.016.

As for ALAD (UniProt P13716), the log2 fold change is inactive: -0.023.

Consider AP3B2 isoform 4 (UniProt Q13367), for which the log2 fold change was inactive: 0.002.

Consider ANAPC2 (UniProt Q9UJX6), for which the log2 fold change is inactive: 0.002.

ALDH1A2 (UniProt O94788): the log2 fold change is inactive: -0.015.

For ANXA3 (UniProt P12429), the log2 fold change was inactive: 0.017.

For the target ANKRD27 (UniProt Q96NW4), the log2 fold change is inactive: -0.102.

On to ANAPC10 (UniProt Q9UM13), for which the log2 fold change was inactive: -0.025.

Take ALG1 (UniProt Q9BT22): the log2 fold change is inactive: 0.008.
